Source: the supplement of paper PMC12067093, “Discovery and optimisation of a covalent ligand for TRIM25 and its application to targeted protein ubiquitination” (Chemical Science, 2025)
The list shows a part of the results.

By UniProt entry, the sequences of proteins in these tests, tags left out. Where a name states a change or a piece, a line headed by the entry shows the natural chain unless it says otherwise.
UniProt Q9BQG0: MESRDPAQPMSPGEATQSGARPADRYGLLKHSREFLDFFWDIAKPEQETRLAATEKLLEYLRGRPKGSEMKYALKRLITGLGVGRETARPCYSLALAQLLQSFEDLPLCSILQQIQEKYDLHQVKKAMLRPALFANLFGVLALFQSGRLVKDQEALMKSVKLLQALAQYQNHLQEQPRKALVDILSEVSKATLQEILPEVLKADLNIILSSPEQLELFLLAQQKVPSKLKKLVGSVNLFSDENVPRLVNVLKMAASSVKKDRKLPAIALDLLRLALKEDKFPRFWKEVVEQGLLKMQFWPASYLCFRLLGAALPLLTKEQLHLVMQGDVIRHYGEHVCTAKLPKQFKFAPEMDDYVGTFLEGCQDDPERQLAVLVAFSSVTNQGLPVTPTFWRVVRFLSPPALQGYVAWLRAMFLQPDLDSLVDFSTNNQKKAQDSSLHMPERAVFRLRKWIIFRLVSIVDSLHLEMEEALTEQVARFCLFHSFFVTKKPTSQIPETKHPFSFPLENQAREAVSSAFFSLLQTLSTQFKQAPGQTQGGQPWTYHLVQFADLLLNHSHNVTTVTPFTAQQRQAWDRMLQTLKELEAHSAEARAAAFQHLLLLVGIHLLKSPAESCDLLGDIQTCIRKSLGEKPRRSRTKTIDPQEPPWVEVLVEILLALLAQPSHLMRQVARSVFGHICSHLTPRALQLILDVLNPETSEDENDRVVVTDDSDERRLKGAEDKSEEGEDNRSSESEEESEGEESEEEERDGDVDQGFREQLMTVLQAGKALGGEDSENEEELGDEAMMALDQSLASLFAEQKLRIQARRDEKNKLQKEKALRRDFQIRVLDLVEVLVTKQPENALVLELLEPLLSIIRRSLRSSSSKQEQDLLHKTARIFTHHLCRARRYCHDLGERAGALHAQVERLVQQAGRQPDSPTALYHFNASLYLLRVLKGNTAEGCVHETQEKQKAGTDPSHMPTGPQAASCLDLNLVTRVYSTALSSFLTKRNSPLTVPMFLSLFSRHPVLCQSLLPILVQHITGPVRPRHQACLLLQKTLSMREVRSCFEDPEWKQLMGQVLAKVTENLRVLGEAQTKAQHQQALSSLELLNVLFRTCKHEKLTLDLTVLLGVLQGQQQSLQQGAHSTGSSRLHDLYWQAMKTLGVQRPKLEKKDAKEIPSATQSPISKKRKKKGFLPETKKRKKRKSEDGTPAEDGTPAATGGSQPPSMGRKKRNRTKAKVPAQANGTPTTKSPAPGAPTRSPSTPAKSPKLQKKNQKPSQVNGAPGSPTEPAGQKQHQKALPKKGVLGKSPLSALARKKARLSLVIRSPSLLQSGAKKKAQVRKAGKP
UniProt Q9H7P6: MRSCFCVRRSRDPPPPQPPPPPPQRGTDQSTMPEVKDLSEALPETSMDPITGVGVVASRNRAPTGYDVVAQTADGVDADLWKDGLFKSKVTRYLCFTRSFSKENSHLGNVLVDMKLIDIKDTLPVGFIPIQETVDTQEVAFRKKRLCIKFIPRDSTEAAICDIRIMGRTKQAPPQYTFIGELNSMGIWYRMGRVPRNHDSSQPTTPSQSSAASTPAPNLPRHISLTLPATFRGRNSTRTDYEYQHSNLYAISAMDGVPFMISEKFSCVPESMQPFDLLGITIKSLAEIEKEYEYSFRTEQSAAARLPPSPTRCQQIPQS
UniProt Q969V5: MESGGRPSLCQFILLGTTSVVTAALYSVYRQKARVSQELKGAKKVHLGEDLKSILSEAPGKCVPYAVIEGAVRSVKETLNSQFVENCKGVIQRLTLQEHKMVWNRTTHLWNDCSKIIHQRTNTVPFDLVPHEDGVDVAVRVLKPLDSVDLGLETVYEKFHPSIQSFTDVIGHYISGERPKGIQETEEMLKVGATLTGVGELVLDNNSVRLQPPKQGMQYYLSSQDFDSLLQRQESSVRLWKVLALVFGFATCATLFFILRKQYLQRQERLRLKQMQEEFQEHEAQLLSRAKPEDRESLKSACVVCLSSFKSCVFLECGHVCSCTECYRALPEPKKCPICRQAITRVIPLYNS
UniProt P52701: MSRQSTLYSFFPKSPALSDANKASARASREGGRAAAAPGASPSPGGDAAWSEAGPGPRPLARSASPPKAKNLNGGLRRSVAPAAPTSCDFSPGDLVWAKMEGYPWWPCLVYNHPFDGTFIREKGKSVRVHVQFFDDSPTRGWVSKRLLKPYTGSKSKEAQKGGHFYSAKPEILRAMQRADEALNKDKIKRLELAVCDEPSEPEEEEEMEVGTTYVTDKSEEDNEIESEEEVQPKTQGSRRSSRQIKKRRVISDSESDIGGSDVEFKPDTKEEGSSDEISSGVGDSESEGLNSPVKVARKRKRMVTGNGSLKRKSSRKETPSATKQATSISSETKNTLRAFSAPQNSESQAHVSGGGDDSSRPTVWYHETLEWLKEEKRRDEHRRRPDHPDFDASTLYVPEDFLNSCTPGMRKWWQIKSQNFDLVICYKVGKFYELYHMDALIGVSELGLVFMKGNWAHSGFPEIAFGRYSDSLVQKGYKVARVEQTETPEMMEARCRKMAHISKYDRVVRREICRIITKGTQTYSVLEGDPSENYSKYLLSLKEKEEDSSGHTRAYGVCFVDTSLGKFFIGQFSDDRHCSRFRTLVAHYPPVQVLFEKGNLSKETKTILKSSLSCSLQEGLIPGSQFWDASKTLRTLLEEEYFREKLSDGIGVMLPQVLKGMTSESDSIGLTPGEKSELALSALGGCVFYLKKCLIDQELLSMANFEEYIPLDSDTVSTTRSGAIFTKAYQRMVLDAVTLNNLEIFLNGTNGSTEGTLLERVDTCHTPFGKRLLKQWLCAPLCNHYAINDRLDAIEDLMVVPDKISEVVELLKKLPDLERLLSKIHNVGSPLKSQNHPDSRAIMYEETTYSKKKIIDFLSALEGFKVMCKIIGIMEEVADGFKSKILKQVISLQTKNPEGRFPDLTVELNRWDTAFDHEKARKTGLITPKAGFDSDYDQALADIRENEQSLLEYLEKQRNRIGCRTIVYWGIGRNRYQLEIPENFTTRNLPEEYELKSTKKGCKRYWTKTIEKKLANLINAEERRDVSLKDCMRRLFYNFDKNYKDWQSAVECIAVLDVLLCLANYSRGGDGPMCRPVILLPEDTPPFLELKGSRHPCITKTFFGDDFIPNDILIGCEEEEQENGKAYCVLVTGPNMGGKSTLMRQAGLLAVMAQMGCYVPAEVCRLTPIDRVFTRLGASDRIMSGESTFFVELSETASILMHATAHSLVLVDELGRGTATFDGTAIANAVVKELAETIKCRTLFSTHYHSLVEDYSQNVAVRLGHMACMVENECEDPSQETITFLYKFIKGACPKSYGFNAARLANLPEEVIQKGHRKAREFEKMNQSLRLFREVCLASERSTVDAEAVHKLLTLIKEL
UniProt P43246, whole entry, looked up: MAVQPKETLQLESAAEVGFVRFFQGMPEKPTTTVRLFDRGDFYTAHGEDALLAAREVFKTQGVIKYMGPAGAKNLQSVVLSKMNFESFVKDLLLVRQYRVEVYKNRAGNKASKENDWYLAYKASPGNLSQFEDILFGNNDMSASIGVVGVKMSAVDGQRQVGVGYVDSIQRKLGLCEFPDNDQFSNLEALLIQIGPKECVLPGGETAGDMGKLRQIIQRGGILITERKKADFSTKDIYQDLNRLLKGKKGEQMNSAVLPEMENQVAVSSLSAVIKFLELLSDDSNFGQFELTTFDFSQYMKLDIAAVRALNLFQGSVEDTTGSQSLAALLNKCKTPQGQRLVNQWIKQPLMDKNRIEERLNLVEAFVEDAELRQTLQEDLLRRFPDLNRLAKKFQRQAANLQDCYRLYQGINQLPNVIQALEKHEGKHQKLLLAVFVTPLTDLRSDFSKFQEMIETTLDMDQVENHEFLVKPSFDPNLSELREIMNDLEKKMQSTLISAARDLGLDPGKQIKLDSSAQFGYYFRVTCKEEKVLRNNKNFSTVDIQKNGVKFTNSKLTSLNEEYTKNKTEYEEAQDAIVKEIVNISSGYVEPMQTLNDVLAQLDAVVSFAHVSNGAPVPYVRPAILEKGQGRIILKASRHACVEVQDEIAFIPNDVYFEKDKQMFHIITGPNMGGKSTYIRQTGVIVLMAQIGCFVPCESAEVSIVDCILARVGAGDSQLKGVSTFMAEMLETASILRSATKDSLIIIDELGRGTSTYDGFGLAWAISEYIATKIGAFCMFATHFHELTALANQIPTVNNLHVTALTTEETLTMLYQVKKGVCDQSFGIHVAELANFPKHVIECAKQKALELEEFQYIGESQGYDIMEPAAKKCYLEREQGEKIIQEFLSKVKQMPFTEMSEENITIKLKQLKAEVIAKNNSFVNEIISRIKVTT
UniProt Q96DP5: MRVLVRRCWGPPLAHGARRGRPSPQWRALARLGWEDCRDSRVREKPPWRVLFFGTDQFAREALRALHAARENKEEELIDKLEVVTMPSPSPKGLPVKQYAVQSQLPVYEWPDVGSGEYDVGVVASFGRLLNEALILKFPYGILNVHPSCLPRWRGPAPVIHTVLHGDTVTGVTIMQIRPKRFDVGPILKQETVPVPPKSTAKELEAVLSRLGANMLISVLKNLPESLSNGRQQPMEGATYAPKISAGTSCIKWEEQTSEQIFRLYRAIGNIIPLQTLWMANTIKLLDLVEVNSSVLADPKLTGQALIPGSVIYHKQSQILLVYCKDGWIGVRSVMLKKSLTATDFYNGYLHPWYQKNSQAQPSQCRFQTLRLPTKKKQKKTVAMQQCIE
UniProt Q96E29: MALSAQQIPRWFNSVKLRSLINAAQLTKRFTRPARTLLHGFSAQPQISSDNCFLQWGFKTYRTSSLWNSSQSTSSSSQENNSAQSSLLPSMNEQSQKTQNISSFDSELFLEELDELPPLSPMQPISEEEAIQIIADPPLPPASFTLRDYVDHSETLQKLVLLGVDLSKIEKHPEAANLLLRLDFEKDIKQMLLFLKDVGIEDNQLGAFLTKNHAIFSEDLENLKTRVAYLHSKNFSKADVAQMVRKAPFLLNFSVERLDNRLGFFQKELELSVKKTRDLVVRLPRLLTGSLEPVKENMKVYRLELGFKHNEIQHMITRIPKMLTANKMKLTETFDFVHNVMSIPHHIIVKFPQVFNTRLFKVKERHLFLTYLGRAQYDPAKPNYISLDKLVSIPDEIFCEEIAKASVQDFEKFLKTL
UniProt Q9Y217: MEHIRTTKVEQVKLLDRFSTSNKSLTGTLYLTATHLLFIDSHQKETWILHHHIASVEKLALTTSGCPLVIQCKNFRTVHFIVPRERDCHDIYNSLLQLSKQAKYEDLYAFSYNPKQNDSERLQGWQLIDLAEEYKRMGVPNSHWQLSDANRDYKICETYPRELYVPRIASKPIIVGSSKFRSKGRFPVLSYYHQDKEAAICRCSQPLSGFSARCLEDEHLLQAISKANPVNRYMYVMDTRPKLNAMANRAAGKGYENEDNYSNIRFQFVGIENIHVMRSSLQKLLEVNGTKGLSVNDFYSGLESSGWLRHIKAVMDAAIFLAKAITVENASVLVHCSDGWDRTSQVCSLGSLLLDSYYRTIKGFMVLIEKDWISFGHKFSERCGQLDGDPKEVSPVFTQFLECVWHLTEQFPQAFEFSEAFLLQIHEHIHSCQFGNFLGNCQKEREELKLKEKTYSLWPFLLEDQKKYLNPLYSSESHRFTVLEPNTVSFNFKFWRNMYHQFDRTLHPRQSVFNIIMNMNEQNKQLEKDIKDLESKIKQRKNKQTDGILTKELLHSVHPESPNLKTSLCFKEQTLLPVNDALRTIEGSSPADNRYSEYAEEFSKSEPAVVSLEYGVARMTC
UniProt Q13496: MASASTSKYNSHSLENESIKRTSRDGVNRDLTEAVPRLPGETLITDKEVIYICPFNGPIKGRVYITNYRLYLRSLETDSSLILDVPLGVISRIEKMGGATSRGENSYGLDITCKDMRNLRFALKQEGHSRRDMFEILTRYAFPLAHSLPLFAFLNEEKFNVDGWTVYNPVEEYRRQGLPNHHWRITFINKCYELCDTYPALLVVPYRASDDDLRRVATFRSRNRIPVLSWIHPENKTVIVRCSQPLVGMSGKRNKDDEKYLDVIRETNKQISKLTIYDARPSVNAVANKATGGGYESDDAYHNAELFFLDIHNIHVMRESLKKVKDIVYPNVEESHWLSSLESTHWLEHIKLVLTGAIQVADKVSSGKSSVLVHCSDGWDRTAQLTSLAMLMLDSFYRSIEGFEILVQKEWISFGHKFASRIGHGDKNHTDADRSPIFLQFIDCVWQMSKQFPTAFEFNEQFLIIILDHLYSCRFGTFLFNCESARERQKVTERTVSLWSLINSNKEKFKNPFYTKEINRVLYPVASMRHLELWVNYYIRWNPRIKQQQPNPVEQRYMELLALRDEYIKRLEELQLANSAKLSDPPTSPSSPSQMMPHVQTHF

Each target was assayed with CC1Cc2ccccc2N1C(=O)C1CCCN(C1)C(=O)CCl (mixture of isomers) [TRIM25 ligand 11 (diastereomer mixture)] (assay: probe-labelled cysteine peptide fold change vs DMSO (competition) (log2 fold change); higher = less target engagement (more negative = stronger competition)). Conditions: 10 µM; THP-1; incubation time: 4 h.
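Further: competitive chemoproteomic profiling in live THP-1 cells with an iodoacetamide desthiobiotin (IA-DTB) probe, comparing probe-labelled peptide intensities in compound-treated cells against DMSO-treated controls.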

Row | Target | probe-labelled cysteine peptide fold change
1 | MTR_Q99707_812_VIDLGVMTPCDK (UniProt Q99707) | 0.0694
2 | MYBBP1A_Q9BQG0_890_YCHDLGER (UniProt Q9BQG0) | -0.046
3 | MTHFD1L_Q6UB35_814_AEIDLVCELAK (UniProt Q6UB35) | 0.194
4 | MTPAP_Q9NVV4_242_LGCDLDMFLDLDETR (UniProt Q9NVV4) | -0.0839
5 | MYH9_P35579_1379_KMEDSVGCLETAEEVKR (UniProt P35579) | -0.22
6 | MSTO1_Q9BUK6_232_LHFYVEECDYLQGFQILCDLHDGFSGVGAK (UniProt Q9BUK6) | 0.183
7 | MVP_Q14764_515_RALCLLLGPDFFTDVITIETADHAR (UniProt Q14764) | -0.253
8 | MYCBP2_O75592_3824_AVEDLCR (UniProt O75592) | -0.0531
9 | MRPL50_Q8N5N7_52_KEPILVCPPLR (UniProt Q8N5N7) | -0.34
10 | MRPL46_Q9H2W6_210_FLGNAPCGHYTFK (UniProt Q9H2W6) | -0.0524
11 | MYCBP2_O75592_222_FSHPSLCLR (UniProt O75592) | -0.00661
12 | MRPS28_Q9Y2Q9_124_FHCVCR (UniProt Q9Y2Q9) | 0.00221
13 | MRPL53_Q96EL3_21_VQFCPFEK (UniProt Q96EL3) | -0.0813
14 | MRPS30_Q9NP92_316_QNCADQIEVVFR (UniProt Q9NP92) | 0.0482
15 | MVB12B_Q9H7P6_267_FSCVPESMQPFDLLGITIK (UniProt Q9H7P6) | -0.551
16 | MTHFD1L_Q6UB35_778_EYTEENIQLVADGCCNLQK (UniProt Q6UB35) | -0.0331
17 | MUL1_Q969V5_62_CVPYAVIEGAVR (UniProt Q969V5) | 0.00708
18 | MSH6_P52701_108_MEGYPWWPCLVYNHPFDGTFIR (UniProt P52701) | 0.26

Row | Target | probe-labelled cysteine peptide fold change
19 | MTCH2_Q9Y6C9_49_QVCQLPGLFSYAQHIASIDGR (UniProt Q9Y6C9) | 0.00231
20 | MYCBP2_O75592_4233_LWLALASLCVLDQDHVDR (UniProt O75592) | -0.327
21 | MRPS9_P82933_233_LLTSQCGAAEEEFVQR (UniProt P82933) | 0.0323
22 | MTHFR_P42898_452_VTCLPWNDEPLAAETSLLK (UniProt P42898) | 0.144
23 | MSH2_P43246_176_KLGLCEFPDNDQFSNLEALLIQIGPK (UniProt P43246) | -0.00362
24 | MYD88_Q99836_203_LCVSDRDVLPGTCVWSIASELIEK (UniProt Q99836) | 0.12
25 | MTPAP_Q9NVV4_412+419_CVIEGNNCTFVR (UniProt Q9NVV4) | -0.138
26 | MTFMT_Q96DP5_365_NSQAQPSQCR (UniProt Q96DP5) | -0.0914
27 | MVD_P53602_12_PLAAVTCTAPVNIAVIK (UniProt P53602) | -0.0804
28 | MYBBP1A_Q9BQG0_678_SVFGHICSHLTPR (UniProt Q9BQG0) | 0.13
29 | MTREX_P42285_110_VQSVETVEGCTHEVALPAEEDYLPLKPR (UniProt P42285) | -0.228
30 | MTHFD1_P11586_195_IVGAPMHDLLLWNNATVTTCHSK (UniProt P11586) | -0.0578
31 | MRPS16_Q9Y3D3_79_HWIGCGAHLSK (UniProt Q9Y3D3) | 0.097
32 | MTERF3_Q96E29_399_LVSIPDEIFCEEIAK (UniProt Q96E29) | 0.0872
33 | MTMR6_Q9Y217_214_CLEDEHLLQAISK (UniProt Q9Y217) | -0.0907
34 | MYCBP2_O75592_4652_QLEGTECPLHVVHPPTGEEFALGCGVCR (UniProt O75592) | 0.13
35 | MTM1_Q13496_113_GENSYGLDITCK (UniProt Q13496) | -0.045
36 | MSH6_P52701_426_SQNFDLVICYK (UniProt P52701) | 0.456

Same assay, conditions: 50 µM; THP-1; incubation time: 4 h

Row | Target | probe-labelled cysteine peptide fold change
37 | MTR_Q99707_812_VIDLGVMTPCDK (UniProt Q99707) | -0.164
38 | MYBBP1A_Q9BQG0_890_YCHDLGER (UniProt Q9BQG0) | -0.0464
39 | MTHFD1L_Q6UB35_814_AEIDLVCELAK (UniProt Q6UB35) | 0.00519
40 | MTPAP_Q9NVV4_242_LGCDLDMFLDLDETR (UniProt Q9NVV4) | -0.14
41 | MYH9_P35579_1379_KMEDSVGCLETAEEVKR (UniProt P35579) | -0.145
42 | MSTO1_Q9BUK6_232_LHFYVEECDYLQGFQILCDLHDGFSGVGAK (UniProt Q9BUK6) | -0.0331
43 | MVP_Q14764_515_RALCLLLGPDFFTDVITIETADHAR (UniProt Q14764) | -0.119
44 | MYCBP2_O75592_3824_AVEDLCR (UniProt O75592) | -0.0509
45 | MRPL50_Q8N5N7_52_KEPILVCPPLR (UniProt Q8N5N7) | -0.165
46 | MRPL46_Q9H2W6_210_FLGNAPCGHYTFK (UniProt Q9H2W6) | -0.0694
47 | MYCBP2_O75592_222_FSHPSLCLR (UniProt O75592) | 0.00547
48 | MRPS28_Q9Y2Q9_124_FHCVCR (UniProt Q9Y2Q9) | 0.0165
49 | MRPL53_Q96EL3_21_VQFCPFEK (UniProt Q96EL3) | 0.0271
50 | MRPS30_Q9NP92_316_QNCADQIEVVFR (UniProt Q9NP92) | 0.324
51 | MVB12B_Q9H7P6_267_FSCVPESMQPFDLLGITIK (UniProt Q9H7P6) | -0.201
52 | MTHFD1L_Q6UB35_778_EYTEENIQLVADGCCNLQK (UniProt Q6UB35) | -0.0422
53 | MUL1_Q969V5_62_CVPYAVIEGAVR (UniProt Q969V5) | -0.0529
54 | MSH6_P52701_108_MEGYPWWPCLVYNHPFDGTFIR (UniProt P52701) | 0.229

Row | Target | probe-labelled cysteine peptide fold change
55 | MTCH2_Q9Y6C9_49_QVCQLPGLFSYAQHIASIDGR (UniProt Q9Y6C9) | -0.0708
56 | MYCBP2_O75592_4233_LWLALASLCVLDQDHVDR (UniProt O75592) | 0.22
57 | MRPS9_P82933_233_LLTSQCGAAEEEFVQR (UniProt P82933) | -0.0172
58 | MTHFR_P42898_452_VTCLPWNDEPLAAETSLLK (UniProt P42898) | 0.122
59 | MSH2_P43246_176_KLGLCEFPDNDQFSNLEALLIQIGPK (UniProt P43246) | -0.105
60 | MYD88_Q99836_203_LCVSDRDVLPGTCVWSIASELIEK (UniProt Q99836) | 0.108
61 | MTPAP_Q9NVV4_412+419_CVIEGNNCTFVR (UniProt Q9NVV4) | -0.0777
62 | MTFMT_Q96DP5_365_NSQAQPSQCR (UniProt Q96DP5) | -0.109
63 | MVD_P53602_12_PLAAVTCTAPVNIAVIK (UniProt P53602) | -0.15
64 | MYBBP1A_Q9BQG0_678_SVFGHICSHLTPR (UniProt Q9BQG0) | -0.106
65 | MTREX_P42285_110_VQSVETVEGCTHEVALPAEEDYLPLKPR (UniProt P42285) | 0.0459
66 | MTHFD1_P11586_195_IVGAPMHDLLLWNNATVTTCHSK (UniProt P11586) | -0.0808
67 | MRPS16_Q9Y3D3_79_HWIGCGAHLSK (UniProt Q9Y3D3) | -0.036
68 | MTERF3_Q96E29_399_LVSIPDEIFCEEIAK (UniProt Q96E29) | 0.0199
69 | MTMR6_Q9Y217_214_CLEDEHLLQAISK (UniProt Q9Y217) | 0.0909
70 | MYCBP2_O75592_4652_QLEGTECPLHVVHPPTGEEFALGCGVCR (UniProt O75592) | -0.0984
71 | MTM1_Q13496_113_GENSYGLDITCK (UniProt Q13496) | -0.119
72 | MSH6_P52701_426_SQNFDLVICYK (UniProt P52701) | 0.537
